# Results: PubChem BioAssay AID2662 (National Center for Advancing Translational Sciences (NCATS), 2010)
# By UniProt entry, the sequences of proteins in these tests, tags left out.
# UniProt Q03164, whole entry, looked up: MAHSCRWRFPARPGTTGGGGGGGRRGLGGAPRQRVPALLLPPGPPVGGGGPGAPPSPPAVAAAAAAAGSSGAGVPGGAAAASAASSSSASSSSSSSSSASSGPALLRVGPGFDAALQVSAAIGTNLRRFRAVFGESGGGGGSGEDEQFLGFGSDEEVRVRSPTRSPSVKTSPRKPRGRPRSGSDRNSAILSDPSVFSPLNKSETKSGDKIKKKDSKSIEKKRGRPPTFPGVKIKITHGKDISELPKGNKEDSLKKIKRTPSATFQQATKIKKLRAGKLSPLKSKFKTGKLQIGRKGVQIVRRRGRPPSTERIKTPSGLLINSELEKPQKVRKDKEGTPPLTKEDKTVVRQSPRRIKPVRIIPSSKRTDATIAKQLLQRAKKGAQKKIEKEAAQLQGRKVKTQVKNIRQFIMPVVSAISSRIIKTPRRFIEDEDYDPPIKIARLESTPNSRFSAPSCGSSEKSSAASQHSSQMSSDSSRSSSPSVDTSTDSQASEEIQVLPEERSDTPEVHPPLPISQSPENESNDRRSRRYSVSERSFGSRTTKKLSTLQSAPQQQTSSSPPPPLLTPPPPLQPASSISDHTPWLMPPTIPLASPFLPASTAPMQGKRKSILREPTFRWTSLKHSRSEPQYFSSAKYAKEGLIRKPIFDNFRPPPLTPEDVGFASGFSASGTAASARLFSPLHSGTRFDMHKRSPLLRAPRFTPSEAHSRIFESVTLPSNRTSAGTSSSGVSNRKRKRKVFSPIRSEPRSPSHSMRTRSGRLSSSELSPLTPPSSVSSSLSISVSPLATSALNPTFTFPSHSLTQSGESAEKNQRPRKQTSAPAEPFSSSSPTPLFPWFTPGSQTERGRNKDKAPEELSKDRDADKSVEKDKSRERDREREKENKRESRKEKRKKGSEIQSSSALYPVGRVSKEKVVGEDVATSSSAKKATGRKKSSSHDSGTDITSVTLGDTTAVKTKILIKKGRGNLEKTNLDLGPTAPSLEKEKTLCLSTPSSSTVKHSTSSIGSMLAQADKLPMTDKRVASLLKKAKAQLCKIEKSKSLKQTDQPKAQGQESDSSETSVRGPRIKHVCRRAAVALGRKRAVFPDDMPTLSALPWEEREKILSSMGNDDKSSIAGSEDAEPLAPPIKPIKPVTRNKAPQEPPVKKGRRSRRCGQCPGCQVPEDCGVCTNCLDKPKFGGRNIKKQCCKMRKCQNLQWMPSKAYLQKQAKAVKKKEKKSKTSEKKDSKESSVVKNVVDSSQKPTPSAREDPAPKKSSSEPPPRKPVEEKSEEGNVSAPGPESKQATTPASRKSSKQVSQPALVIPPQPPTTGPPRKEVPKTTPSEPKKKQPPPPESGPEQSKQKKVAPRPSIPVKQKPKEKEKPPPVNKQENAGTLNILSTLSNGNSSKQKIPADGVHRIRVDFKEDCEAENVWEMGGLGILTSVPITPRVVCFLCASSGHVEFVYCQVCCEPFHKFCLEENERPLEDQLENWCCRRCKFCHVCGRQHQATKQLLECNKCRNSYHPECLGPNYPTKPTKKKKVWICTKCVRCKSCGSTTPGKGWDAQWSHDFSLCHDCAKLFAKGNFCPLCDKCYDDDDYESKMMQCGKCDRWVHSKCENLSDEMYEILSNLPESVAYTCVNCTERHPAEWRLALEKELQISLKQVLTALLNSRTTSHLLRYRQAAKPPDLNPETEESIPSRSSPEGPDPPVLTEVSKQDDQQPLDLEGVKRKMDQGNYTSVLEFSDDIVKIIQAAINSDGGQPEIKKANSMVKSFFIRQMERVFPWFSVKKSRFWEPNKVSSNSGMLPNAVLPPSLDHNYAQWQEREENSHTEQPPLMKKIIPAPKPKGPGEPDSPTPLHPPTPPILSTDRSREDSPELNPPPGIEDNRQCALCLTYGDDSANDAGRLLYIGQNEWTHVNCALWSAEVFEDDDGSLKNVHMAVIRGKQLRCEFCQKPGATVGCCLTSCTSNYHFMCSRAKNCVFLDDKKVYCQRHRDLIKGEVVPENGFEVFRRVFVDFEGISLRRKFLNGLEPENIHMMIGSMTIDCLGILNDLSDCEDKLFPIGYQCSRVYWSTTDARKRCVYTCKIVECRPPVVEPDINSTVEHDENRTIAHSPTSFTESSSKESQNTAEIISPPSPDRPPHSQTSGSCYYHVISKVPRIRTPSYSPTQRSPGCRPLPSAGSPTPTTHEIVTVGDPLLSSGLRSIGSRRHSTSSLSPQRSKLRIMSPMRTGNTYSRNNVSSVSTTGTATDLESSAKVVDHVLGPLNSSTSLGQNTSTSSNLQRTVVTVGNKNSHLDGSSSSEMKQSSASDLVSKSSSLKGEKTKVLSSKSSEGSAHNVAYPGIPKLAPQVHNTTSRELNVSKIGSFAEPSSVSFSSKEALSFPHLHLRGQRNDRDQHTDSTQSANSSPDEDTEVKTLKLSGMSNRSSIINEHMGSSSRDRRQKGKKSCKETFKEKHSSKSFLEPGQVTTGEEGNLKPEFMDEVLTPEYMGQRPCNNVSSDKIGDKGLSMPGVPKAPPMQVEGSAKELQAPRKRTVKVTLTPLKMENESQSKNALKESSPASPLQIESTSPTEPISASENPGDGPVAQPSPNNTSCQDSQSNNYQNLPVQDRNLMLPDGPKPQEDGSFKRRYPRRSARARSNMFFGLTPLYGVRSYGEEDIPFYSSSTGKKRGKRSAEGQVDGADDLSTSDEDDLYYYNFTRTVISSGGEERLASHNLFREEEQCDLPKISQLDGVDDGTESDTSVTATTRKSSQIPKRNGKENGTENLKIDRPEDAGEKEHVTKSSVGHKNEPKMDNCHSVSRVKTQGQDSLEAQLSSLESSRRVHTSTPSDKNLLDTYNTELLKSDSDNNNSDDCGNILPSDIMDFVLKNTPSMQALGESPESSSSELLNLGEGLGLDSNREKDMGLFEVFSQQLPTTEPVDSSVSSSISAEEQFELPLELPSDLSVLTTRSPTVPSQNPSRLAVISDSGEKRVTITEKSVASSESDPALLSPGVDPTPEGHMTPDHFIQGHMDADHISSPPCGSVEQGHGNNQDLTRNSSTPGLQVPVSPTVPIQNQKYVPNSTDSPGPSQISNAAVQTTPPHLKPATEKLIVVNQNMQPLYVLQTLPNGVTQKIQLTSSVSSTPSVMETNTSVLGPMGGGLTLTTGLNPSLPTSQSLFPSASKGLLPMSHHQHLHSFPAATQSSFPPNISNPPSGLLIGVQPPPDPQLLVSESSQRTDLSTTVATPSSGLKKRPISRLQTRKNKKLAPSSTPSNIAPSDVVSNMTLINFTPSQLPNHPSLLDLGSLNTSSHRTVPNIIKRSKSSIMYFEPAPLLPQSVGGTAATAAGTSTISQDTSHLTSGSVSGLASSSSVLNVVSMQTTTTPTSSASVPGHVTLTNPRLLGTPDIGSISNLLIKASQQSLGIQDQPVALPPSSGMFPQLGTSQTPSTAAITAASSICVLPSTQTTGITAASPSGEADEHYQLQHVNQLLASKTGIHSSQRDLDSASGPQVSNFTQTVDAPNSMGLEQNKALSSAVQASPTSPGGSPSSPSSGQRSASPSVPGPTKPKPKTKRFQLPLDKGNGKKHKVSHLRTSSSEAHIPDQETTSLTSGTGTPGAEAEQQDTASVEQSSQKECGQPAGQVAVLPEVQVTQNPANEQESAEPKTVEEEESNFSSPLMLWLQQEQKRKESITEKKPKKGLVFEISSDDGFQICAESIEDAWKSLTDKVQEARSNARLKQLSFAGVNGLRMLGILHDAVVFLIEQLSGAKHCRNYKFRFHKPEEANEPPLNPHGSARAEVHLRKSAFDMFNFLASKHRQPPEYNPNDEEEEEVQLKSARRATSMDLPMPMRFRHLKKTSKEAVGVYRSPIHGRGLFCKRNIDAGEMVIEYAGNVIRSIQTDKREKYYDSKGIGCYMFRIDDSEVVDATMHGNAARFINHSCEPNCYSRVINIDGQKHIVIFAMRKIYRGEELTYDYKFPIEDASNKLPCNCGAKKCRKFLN
# Hit rate of the full screen: of about 290,000 compounds, about 110 (0.038%) were called active. The shares of active, inactive and inconclusive entries below differ from those in the screen. Calls follow the shape of the dose curve; as a rule, active = well fitted inhibition curve with a large enough effect in the polarisation, with a control signal flat (not every such curve was filed as active); inconclusive = small, poorly fitted or top-dose-only effect, or effect the other way, or a change in a side signal; inactive = no such curve, though single readings can be large or run the other way; the % refers to the polarisation. Where the call is inconclusive, the potency comes from a doubtful curve fit. A note “side channel” means that the fit belongs to a control or component signal, not to the main read-out.
# Biological target: Histone-lysine N-methyltransferase 2A (Homo sapiens) (UniProt Q03164)
# Assay: qHTS Fluorescence Polarization Assay for Inhibitors of MLL CXXC domain - DNA interaction
# Conditions: MLL-CXXC / FITC-HOXA9 DNA fluorescence polarization; activity change, negative = inhibition: at 115 µM (top of the series)
# In short: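 Fluorescence polarization: 7 uM MLL-CXXC (stock) preincubated 5 min with compounds, then 50 nM fluorescein-HOX-A9 DNA (stock) added; 30 min ambient. Buffer 50 mM Tris-HCl pH 7.5, 50 mM NaCl, 1 mM DTT, 0.05% BSA.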
# Potency is read from the fitted curve at half-maximal effect.
SMILES,"activity change, negative = inhibition",Potency
O=c1c2c(nc3cc(-c4ccccc4Cl)[nH]n13)CCS2,inactive: -10.8%,
CCN1CCc2nc3ccccc3c(C(=O)Nc3ccc(C#N)cc3)c2C1,inconclusive: 19.9% [phenotype inactive],
Cc1ccc(CCNC(=O)CCS(=O)(=O)Cc2ccc(C)cc2)cc1,,"inconclusive: 70.8 µM [inhibitor, single point]"
Cc1nc2ccccc2c(N)c1C(=O)/C=C/c1ccccc1,,"inconclusive: 70.8 µM [quencher, side channel, single point]"
Cc1ccc(C(=O)CCS(=O)(=O)c2ccc(Br)cc2)cc1,,"inconclusive: 89.1 µM [quencher, side channel, single point]"
CCCCCNc1nc(NCCCO)c(C#N)c2c1CN(C)CC2,,"inconclusive: 63.1 µM [fluorescent, single point]"
Cn1cc(/C=C/c2cc[n+](C)cc2)c2cc(Cl)ccc21,,"inconclusive: 17.8 µM [fluorescent, side channel, partial curve]"
CCOC(=O)c1csc(NC(=O)CSc2nnnn2-c2ccc3c(c2)OCCO3)n1,inactive: -4.29%,
CCc1ccc(NC(=O)CSc2ccc(-c3cccnc3)nn2)cc1,,"inconclusive: 14.1 µM [fluorescent, side channel, single point]"
CCN1CCN(c2nc(-c3ccccn3)nc3ccccc23)CC1,,"inconclusive: 39.8 µM [quencher, side channel, partial curve]"
CN(C)c1ccc(C(=O)C(O)c2ccccc2)cc1 (centres undefined),inactive: -4.73%,
C=CCN(CC=C)CCOc1ccccc1F,,"inconclusive: 1.41 µM [fluorescent, side channel, full curve]"
COc1ccc2[nH]c3c(NCc4ccco4)ncnc3c2c1,,"inconclusive: 63.1 µM [inhibitor, single point]"
Oc1ccc(-c2csc(-c3ccccc3)n2)cc1O,inactive: -4.12%,
N#C/C(=C\c1ccc(O)c(O)c1)C(=O)Nc1ccccc1,,"inconclusive: 39.8 µM [fluorescent, side channel, single point]"
COc1ccc(C(=O)Nc2ccc(S(=O)(=O)N3CCCC3)cc2)cc1,,"inconclusive: 63.1 µM [fluorescent, side channel, single point]"
CC1C=CCC2C(=O)N(c3ccc(Cl)cc3O)C(=O)C12 (centres undefined),,"inconclusive: 63.1 µM [inhibitor, single point]"
COc1cc(C(=O)N/N=C/c2coc3ccc(Cl)cc3c2=O)ccc1O,,"inconclusive: 10 µM [fluorescent, side channel, partial curve]"
CCOC(=O)c1c(C)[nH]c(=S)c(C#N)c1-c1ccc(Cl)cc1,,"inconclusive: 1.41 µM [quencher, side channel, full curve]"
COC(=O)c1ccn(CC(=O)NC2CCCCC2)n1,,"inconclusive: 70.8 µM [fluorescent, side channel, partial curve]"
CCN(CC)C(=O)C1c2ccccc2Oc2ccccc21,,"inconclusive: 31.6 µM [fluorescent, side channel, partial curve]"
C=CCN1C(=O)/C(=C2/Sc3ccc(OC)cc3N2CC)SC1=S,,"inconclusive: 44.7 µM [fluorescent, side channel, single point]"

SMILES,"activity change, negative = inhibition",Potency
CCc1ccc(C(=O)/C=C/Nc2ccc(S(=O)(=O)Nc3cnc4ccccc4n3)cc2)cc1,,"inconclusive: 89.1 µM [inhibitor, single point]"
C=CC(=O)NCC1OCCc2ccccc21 (centres undefined),,"inconclusive: 70.8 µM [fluorescent, side channel, single point]"
CCOC(=O)c1ccc(N2C=C(C(=O)OC)C(c3ccc(OC)c(O)c3)C(C(=O)OC)=C2)cc1,,"inconclusive: 79.4 µM [fluorescent, side channel, single point]"
CC(C)c1nnc(NC(=O)c2sc3ccccc3c2Cl)s1,,"inconclusive: 28.2 µM [inhibitor, partial curve]"
O=C(Nc1ccc(-c2nc3ccc(NC(=O)c4cccs4)cc3[nH]2)cc1)c1cccs1,,"inconclusive: 5.62 µM [quencher, side channel, full curve, poor fit]"
CCN(CC)c1ccc2cc(-c3nc4ccccc4n3C)c(=O)oc2c1,,"inconclusive: 31.6 µM [fluorescent, side channel, partial curve]"
CS(=O)(=O)N1N=C(c2ccccc2)CC1c1ccc2c(c1)OCO2 (centres undefined),,"inconclusive: 39.8 µM [fluorescent, side channel, single point]"
COc1cc([N+](=O)[O-])cc(/C=C2/SC(=S)N(Cc3ccccc3)C2=O)c1O,inactive: 3.09%,
CC(C)c1csc(CN2CCC(CO)(Cc3cccc(F)c3)CC2)n1,,"inconclusive: 8.91 µM [inhibitor, single point]"
NCCCC(N)CC(=O)NCC1NC(=O)C(CO)NC(=O)C(N)CNC(=O)C(C2CCN=C(N)N2)NC(=O)/C(=C/NC(N)=O)NC1=O (centres undefined),inactive: -12.6%,
COc1ccc(C(=O)NNC2=Nc3cccc4cccc2c34)cc1,,"inconclusive: 20 µM [fluorescent, side channel, partial curve]"
CC(=O)NC(=O)NC1OC(=O)C(Cl)=C1Cl (centres undefined),,"inconclusive: 63.1 µM [inhibitor, single point]"
CSc1nnc([C@H](C)NC(=O)OC(C)(C)C)o1,,"inconclusive: 1.41 µM [inhibitor, full curve]"
COc1ccc(C(=O)NC(=S)Nc2ccc(N3CCCC3)cc2)cc1,inactive: 8.64%,
CCNc1ccc(C(=O)OCC(=O)c2cc(C)n(Cc3ccc4c(c3)OCO4)c2C)cc1[N+](=O)[O-],,"inconclusive: 50.1 µM [inhibitor, single point]"
COC(=O)C1=C(C)NC(=O)NC1c1ccc(-c2ccccc2Cl)o1 (centres undefined),inconclusive: 6.01% [phenotype inactive],
COc1ccc(-c2cc(CNS(=O)(=O)c3cc(OC)ccc3OC)on2)cc1,,"inconclusive: 11.2 µM [fluorescent, side channel, single point]"
COC(=O)C1=C(C)NC(C)=C(C(=O)OC)C1c1ccc(-c2cccc(Cl)c2Cl)o1,inactive: 9.67%,
CCc1cccc(C)c1Nc1nc2ccccc2n2cnnc12,,"inconclusive: 22.4 µM [fluorescent, side channel, partial curve]"
COc1c(CC=C(C)C)cc(C2CC(=O)c3c(O)cc(O)cc3O2)cc1CC=C(C)C (centres undefined),,"inconclusive: 89.1 µM [quencher, side channel, single point]"
Cn1c(=Nc2ccc(N3CCOCC3)cc2)ccc2ccccc21,inactive: -0.483%,
Oc1c(C(Nc2cccc(C(F)(F)F)c2)c2cccnc2)ccc2cccnc12 (centres undefined),inactive: 0.177%,

# Already shown: entries from further up.
SMILES,"activity change, negative = inhibition",Potency
CC(=O)NC(=O)NC1OC(=O)C(Cl)=C1Cl (centres undefined),,"inconclusive: 63.1 µM [inhibitor, single point]"
CSc1nnc([C@H](C)NC(=O)OC(C)(C)C)o1,,"inconclusive: 1.41 µM [inhibitor, full curve]"

# Additional entries

SMILES,"activity change, negative = inhibition",Potency
COC(=O)C(=O)C/C(=N/Nc1ncnc2ccccc12)c1ccc(Cl)cc1,,"inconclusive: 70.8 µM [fluorescent, side channel, single point]"
CCCCN1C(=O)/C(=C/C=C2\Oc3ccccc3N2CC)SC1=S,,"inconclusive: 6.31 µM [fluorescent, side channel, full curve]"
CCN(CC)CCN1C(=O)c2ccccc2NC1c1ccc(F)cc1 (centres undefined),inactive: -26.1%,
S=C(NCc1cccs1)NCC1CCCO1 (centres undefined),,"inconclusive: 31.6 µM [inhibitor, single point]"
Cc1cccc(N=Nc2c(C)c(C#N)c(O)[nH]c2=O)c1,,"inconclusive: 44.7 µM [fluorescent, side channel, partial curve]"
Cc1ccc(-n2c(O)c(/C=N/NC(=O)C3COc4ccccc4O3)c3ccccc3c2=O)cc1 (centres undefined),,"inconclusive: 31.6 µM [fluorescent, side channel, partial curve]"
CCOCCCNC(=O)CN1C(=O)CSc2ccccc21,inactive: 5.3%,
CCN(CC)C(=O)c1sc2nc(-c3cccs3)cc(-c3cccs3)c2c1N,,"inconclusive: 31.6 µM [fluorescent, partial curve]"
CN(C)/N=C/C=C1\CCC/C(=C\c2ccc(F)c(F)c2)C1=O,,"inconclusive: 35.5 µM [fluorescent, side channel, partial curve]"
CN1/C(=C\C=C2/SC(=S)NC2=O)C(C)(C)c2ccccc21,,"inconclusive: 10 µM [fluorescent, side channel, full curve]"
C#CCn1cc(/C=N/Nc2nc3ccccc3[nH]2)c2ccccc21,,"inconclusive: 100 µM [quencher, side channel, single point]"
COc1ccc(C(C)(C)C)cc1NC(=O)c1cc(S(=O)(=O)N(C)C)ccc1N1CCCC1,,"inconclusive: 89.1 µM [quencher, side channel, single point]"
CC(/C=N/Nc1nnc(C)c(=O)[nH]1)=C\c1ccccc1,inactive: -1.07%,
CN(C)C(CNC(=O)C1CCN(S(=O)(=O)c2ccccc2)CC1)c1ccccc1 (centres undefined),,"inconclusive: 35.5 µM [inhibitor, single point]"
COC(=O)Nc1csc2c1NC(=O)CCCC2,inactive: 16%,
Oc1ccc2ccccc2c1N=Nc1nccs1,,"inconclusive: 31.6 µM [quencher, side channel, single point]"
Nc1ccc(-c2nc3ccccc3s2)cn1,inactive: -0.0896%,
CC(=O)Nc1ccc(Nc2nc(C)nc3c2oc2ccccc23)cc1,inactive: -1.9%,
CC1CCN(CCc2nc3cc(NC(=O)COc4ccc(Cl)cc4)ccc3n2C)CC1,inactive: 2.27%,
O=C(NCc1ccccn1)Nc1ccc(Cl)cc1Cl,,"inconclusive: 11.2 µM [quencher, side channel, single point]"
